Experiment: Relative ratings of solid hypochlorite bleach products
Conditions: for Available Chlorine / Formula Flexibility / Minimal Odor: relative rating; for Total Pts: sum of the six ratings

Molecule	Available Chlorine	Formula Flexibility	Minimal Odor	Total Pts
[Ca+2].[O-]Cl.[O-]Cl [Calcium hypochlorite, calcium hypochlorite]	5	3	1	18
[Li+].[O-]Cl [Li(OCl)2, lithium hypochlorite]	3	1	1	14
sodium hypochlorite phosphate adduct [Na(OCl)2 phosphate adduct]	1	3	3	16
Trichloromelamine	5	1	1	16
O=C1CN(Cl)C(=O)N1Cl [Dichlorohydantoin]	5	1	3	16

Source: patent US10214710B2, “Intercalated bleach compositions, related methods of manufacture and use” (The Clorox Company, priority 2013, dated 2019)
